The numbers were not newly measured in article PMC9355975, “Functional human cell-based vascularised cardiac tissue model for biomedical research and testing” (Scientific Reports, 2022), which cites them from elsewhere.

Details of this data set: method as in PMID 24052561, PMID 27701120, PMID 27956204, PMID 22972846, PMID 3988675. As to conditions: free plasma concentration from the literature; cited from earlier work.

For `Cc1cccc(CCN2CCC(C(=O)c3ccc(NS(C)(=O)=O)cc3)CC2)n1` [E-4031], the Therapeutic concentration is 8.4[60] nM.
